Measurements reported in US20210079067A1.
No constants are given. Whether binding was seen depends on the method and setting. Some entries that bind do so weakly or less than the wild type.

Chains of the proteins cited; added tags and fusions are not shown. Residues count along the entry.
UniProt Q05320, residues 33-650: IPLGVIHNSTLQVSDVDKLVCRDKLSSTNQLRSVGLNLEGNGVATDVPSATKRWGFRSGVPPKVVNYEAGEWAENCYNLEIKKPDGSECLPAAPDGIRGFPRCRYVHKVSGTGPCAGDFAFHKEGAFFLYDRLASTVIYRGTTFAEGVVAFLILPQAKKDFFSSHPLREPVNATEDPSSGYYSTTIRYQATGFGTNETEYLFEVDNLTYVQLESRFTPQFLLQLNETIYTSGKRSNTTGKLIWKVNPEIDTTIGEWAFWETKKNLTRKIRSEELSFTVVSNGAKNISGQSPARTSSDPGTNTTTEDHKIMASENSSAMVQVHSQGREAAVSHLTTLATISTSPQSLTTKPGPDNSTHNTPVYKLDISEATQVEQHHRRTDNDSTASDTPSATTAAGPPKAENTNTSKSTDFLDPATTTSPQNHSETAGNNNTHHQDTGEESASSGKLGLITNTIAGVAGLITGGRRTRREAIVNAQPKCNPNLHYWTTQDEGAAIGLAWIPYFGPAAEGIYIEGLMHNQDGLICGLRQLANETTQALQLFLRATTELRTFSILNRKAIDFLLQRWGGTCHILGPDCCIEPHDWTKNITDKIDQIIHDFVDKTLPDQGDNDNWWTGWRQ

Experiments:
[1] = molecular target: Zaire ebolavirus full-length GP (Zaire ebolavirus) (UniProt Q05320); assay: ELISA, plates coated with purified protein
[2] = molecular target: Zaire ebolavirus full-length GP (Zaire ebolavirus) (UniProt Q05320); assay: ELISA on plates coated with purified full-length Zaire ebolavirus GP, A450

B1: S1-4-A09 antibody (IgG1 expressed version) (antibody, V domains shown)
VH: QVQLQESGPGLVKPSETLSLTCVVSGGILSSFYWNWIRQPPGKGLEWIGNIYYSGSPNYNASFQSRVAISVDTSKNQISLNLKSVTAADTAMYYCVRASRAYLWGSYRPTALDLWGQGSLVTVSS
VL: SYELTQPPSVSVSPGQTATITCSGDKLGDKYTSWFQQRPGQSPLLVIYQDNKRPSGLPARFSGSNSGNTATLTISGTQAMDEADYLCQVWDSGAVFGGGTKLTVLG
For B1, the binding [1] was “binds” and the binding [2] was “binds”.
